Results are given in words; binding and its absence hold for the method and conditions named. For some assays here: Binding seen in cells or lysates may run through a third protein. Some binding calls cover weakened binding; strength is not graded here. Tags and fused reporters may be left off the sequences shown.
T1: HY5 fused with C-terminal part of YFP (HY5-cYFP) (Arabidopsis thaliana) (UniProt O24646)
T1 sequence: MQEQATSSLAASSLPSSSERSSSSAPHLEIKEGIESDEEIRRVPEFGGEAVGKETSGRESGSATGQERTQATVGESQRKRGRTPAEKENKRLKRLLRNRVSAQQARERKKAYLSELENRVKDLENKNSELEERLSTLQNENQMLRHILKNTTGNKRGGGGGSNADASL

T2: HY5 fused to the binding domain of GAL4 (Arabidopsis thaliana) (UniProt O24646)
T2 sequence: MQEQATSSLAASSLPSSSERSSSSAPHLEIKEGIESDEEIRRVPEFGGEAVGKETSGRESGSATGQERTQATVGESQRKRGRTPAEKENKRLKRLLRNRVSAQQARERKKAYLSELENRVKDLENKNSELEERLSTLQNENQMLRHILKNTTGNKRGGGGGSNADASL


Key:
[1] = biological target: T1, HY5 fused with C-terminal part of YFP (HY5-cYFP) (Arabidopsis thaliana); assay: split reporter
[2] = biological target: T2, HY5 fused to the binding domain of GAL4 (Arabidopsis thaliana); assay: two-hybrid

| binding [2] | Molecule | binding [1] |
| --- | --- | --- |
| – | PYE fused to the N-terminal part of YFP (nYFP-PYE) (from UniProt Q9SN74 1-240) | binds |
| binds | PYE fused to the activation domain of GAL4 (protein, UniProt Q9SN74 1-240) MVSKTPSTSSDEANATADERCRKGKVPKRINKAVRERLKREHLNELFIELADTLELNQQNSGKASILCEATRFLKDVFGQIESLRKEHASLLSESSYVTTEKNELKEETSVLETEISKLQNEIEARANQSKPDLNTSPAPEYHHHHYQQQHPERVSQFPGLPIFQGPGFQQSATTLHPPATVLVLPIQPDPQTQDISEMTQAQQPLMFNSSNVSKPCPRYASAADSWSSRLLGERLKASE | – |
